The values below come from PMC10163288.

In general, apparent Kd refers to the concentration giving half-maximal binding under the conditions of the assay.

This is one part of the list.

The labels stand for the following.
B1: il2ra_site2_2erj_normal_mot_HHH_b2_01204_af2_000000056_0001_19_34_H_._HHH_b1_07940_af2_0001_0000100003_0000001_1 (protein)
chain: SSSSDEVEERVKELLEEAREAYKNGDLEEVYKIAVEALHVASKNQDPELQEEVAKVARELSSSSS
B2: il2ra_site2_3nfp_normal_mot_HHH_b1_07556_000000077_0001_42_55_H_._738ccc93aada9afe30a0d8950425dc90_0001_1_0001_0000100012_0000001_0_af2pred_0001_1_af2pred_swapp … (protein)
chain: DVERELSRLARERDDPLVLLALAEIRRLKLNGVPPEEIEEIVEEIIKKAGLPPEIEELLREAVRE
B3: il2ra_site2_2erj_normal_mot_HHH_b1_08609_000000203_0001_43_56_H_._HHH_b1_04650_af2_0001_0000300024_0000001_1 (protein)
chain: SSSSDEELERLFELASRLLEAIHKGDEELIEELLEEIRRIIEEFNSDNAREILERLERHGSSSSS
B4: il2ra_site2_3nfp_sap_21_mot_HHH_b2_01071_af2_000000008_0001_40_57_H_._075aee7f5d3771457fc9f4d4e0efb7bf_0001_0001_0000400016_0000001_0_0001_af2pred_0001_af2pred (protein)
chain: SSSSSDEEEEEVEELLERAKHTEDKHELYALLALAAAIAAENDDEELERLVKKVLQELQNSSSSS
B5: il2ra_site2_2erj_normal_mot_HHH_b1_02139_af2_000000203_0001_1_18_H_._HHH_b2_02853_0001_0000100001_0000001_0 (protein)
chain: SSSSSDAEKAARAIELTIRLLQEKNDEETLEQVVRSALSYAEAFNDEELFEFVEKVLEEISSSSS
B6: il2ra_site1_3nfp_sap_20_mot_HHH_b2_05592_000000000_0001_42_56_H_._8cccc599a7bb59b440cc763c2d19aad1_0001_0001_0000500045_0000001_0_0001 (protein)
chain: SSSSDLQEEVEELLEEAERALKEGNPEEAMKLAERAFEIARKAGDRELAELIWRFIHELISSSSS
B7: il2ra_site1_3nfp_sap_13_mot_HHH_b1_03725_af2_000000070_0001_39_57_H_._HHH_b2_02325_0001_0000200004_0000001_0_0001_af2pred_0001_af2pred_1_swapped (protein)
chain: SSSSSELERRVEELLEEAEELAKRGDLRAARVLQEAYRLVAEAGNKELAEKIFEVQRRLASSSSS
B8: il2ra_site1_1z92_normal_mot_HHH_b1_04604_af2_000000029_0001_42_56_H_._HHH_b1_03981_0001_0000400027_0000001_0_af2pred_0001_af2pred (protein)
chain: SSSSSSSVVELIEELIKLWQNNDPEEFERVAEELEELAKELDNRTAERILENARKAAGSSSSSSS
B9: il2ra_site2_2erj_sap_18_mot_a171aa182591c97700389b7a6f87ba9a_0001_af2_000000020_0001_32_46_H_._HHH_b1_05100_af2_0001_0000100010_0000001_1_0001_af2pred_0001_af2p … (protein)
chain: SSSSSSSKEHVEELLEEAEHVEDSERRRHLLLRALLVALKLGDPELQRLVKEVLERTQSSSSSSS
B10: il2ra_site2_2erj_normal_mot_HHH_b1_06777_000000153_0001_1_20_H_._HHH_b1_06434_0001_0000600032_0000001_0 (protein)
chain: SSSSDEVEELYEELKEALEKGDEELVHKLAWEALRLVHKLDDPELIRLLAELLTEALHFLHSSSS
B11: il2ra_site2_3nfp_normal_mot_HHH_b1_00660_af2_000000090_0001_40_57_H_._HHH_b2_05870_0001_0000700012_0000001_0_af2pred_0001_af2pred (protein)
chain: SSSSSSDEVEELIEQAEELLKKGNPEEAKEALERAALIAAELGDFELFTRIIELREKVVSSSSSS
B12: il2ra_site1_3nfp_normal_mot_eb5a5eebac1e5153f932cc6c3f4b2787_0001_af2_000000065_0001_18_33_H_._31bff7180b20e3ed47766ceefd9934be_0001_af2_0001_0000200025_0000001 … (protein)
chain: DEEKELAELIAEAVEKNDPELLEEVVQELLKKLGDPKEASRLFEELLRKAGLSPEEIYLAMELVV
B13: il2ra_site1_3nfp_sap_13_mot_HHH_b1_08347_000000157_0001_20_36_H_._HHH_b1_04342_0001_0000100004_0000001_0_0001 (protein)
chain: SSSSSSDDLEELMRLMEELFKKGDHEELRRVAEELEELAEERGDPSAEKIARFFLKALSSSSSSS
B14: il2ra_site2_2erj_normal_mot_HHH_b1_03107_000000098_0001_39_52_H_._HHH_b2_04324_0001_0000200029_0000001_0 (protein)
chain: SSSSTEEWERVAELLVQALELARRGNPEEAERLLEEAKEIAEEAGSEALKRYVEYVRRDISSSSS
B15: il2ra_site1_1z92_sap_19_mot_HHH_b1_06225_000000037_0001_38_56_H_._HHH_b2_01707_0001_0000200014_0000001_0_0001 (protein)
chain: SVEERLEEAVRRNDPELVKEILEEALKEEGVNPRMVEDLLRFAHASAGGDPEDLVRMVLAMLERA
B16: il2ra_site2_3nfp_normal_mot_HHH_b2_02437_000000052_0001_42_56_H_._HHH_b2_05093_0001_0000300021_0000001_0_af2pred_0001_af2pred (protein)
chain: SSSSSDEEEVEREVRELLELAEKIPDPRERWAVLLTAYQLALKNKDEELRRLVREVIQELSSSSS
B17: il2ra_site2_3nfp_normal_mot_HHH_b2_04451_000000238_0001_21_37_H_._HHH_b1_07051_af2_0001_0000100005_0000001_0 (protein)
chain: SSSSLEEEVEELLREARELLEEGDKYEALELVARASELAAKNNNEELAREILELFEEIQRLSSSS
B18: il2ra_site2_2erj_sap_14_mot_HHH_b1_05073_000000088_0001_40_56_H_._HHH_b2_01977_0001_0000700014_0000001_0_0001_af2pred_0001_af2pred (protein)
chain: SSSSDRWLELAIEAIERAIKRGDYEFAEIAIEILKIAAEALGDEEALERAEELREEVEKLSSSSS
B19: il2ra_site1_3nfp_sap_16_mot_HHH_b1_06381_000000036_0001_23_39_H_._HEEHE_0898_0001_0000100002_0000001_0_0001_af2pred_0001_af2pred_swapped (protein)
chain: SSSSSSDAEEEVRELLEEAKHIEDPEEARRVFEEARKIANRHNDKEAVRLIKEFVKRASSSSSSS
B20: il2ra_site1_3nfp_normal_mot_HHH_b1_03716_af2_000000072_0001_40_56_H_._HHH_b1_07927_af2_0001_0000100016_0000001_0_af2pred_0001_af2pred_swapped (protein)
chain: SSSSSDEEVEELLKELEELIKEGNSREAEELAKEISKIILELGDEELNRELLRLLREAVSSSSSS
B21: il2ra_site1_1z92_normal_mot_7f39e2d7389de0c2f60e905c27398b6a_0001_1_000000104_0001_37_51_H_._ed672b822448df934975055ed07e5099_0001_1_af2_0001_0000200011_0000001 … (protein)
chain: DEEIERLLREILEEALGDPEVAERLLELIRKHAGGDPEKVARVVARLLRAAGDPEATKKVEELLK
B22: il2ra_site2_2erj_sap_35_mot_3b06bd03f1c6bceadc68eab912867b79_0001_000000296_0001_36_50_H_._15f70e71ac3214bf43105af5abf4654e_0001_1_af2_0001_0000300007_0000001_0 … (protein)
chain: SSSSDEELRRLYELAVRLMRLLAEGDEEQLEKLLEEAREIAERLQSPNAEEVIEFLERRGSSSSS
B23: il2ra_site2_3nfp_normal_mot_9d078286af883dfa287c94d9dd69cdb5_0001_af2_000000122_0001_35_49_H_._HHH_b1_02480_af2_0001_0000400010_0000001_0 (protein)
chain: SSSSNEYAEFAAESARLQLERLGDEETLEELEKLLEEVKREGDPEAQIRLYELLRRIADERSSSS
B24: il2ra_site1_3nfp_sap_10_mot_HHH_b2_00770_af2_000000063_0001_1_19_H_._HHH_b2_07788_0001_0000400012_0000001_0_0001 (protein)
chain: NEEARRLAEAIARGDPRVEELIEELVEELKRKGDPDLRHALKALARMARSFGNPELAEELERLLK

The target in this assay is il2ra, P01589. In words: yeast display titration.
Take B1: the “apparent Kd” value is “inactive: no binding seen”.

As to B2, the “apparent Kd” value was “inactive: no binding seen”.

In the case of B3, the “apparent Kd” value was “inactive: no binding seen”.

Turning to B4, the “apparent Kd” value is “inactive: no binding seen”.

With B5, the apparent Kd is inactive: > 502 nM.

Consider B6, for which the “apparent Kd” value is “inactive: no binding seen”.

With B7, the “apparent Kd” value is “inactive: no binding seen”.

With B8, the “apparent Kd” value is “inactive: no binding seen”.

As to B9, the “apparent Kd” value was “inactive: no binding seen”.

Consider B10, for which the “apparent Kd” value is “inactive: no binding seen”.

B11: the “apparent Kd” value is “inactive: no binding seen”.

With B12, the “apparent Kd” value is “inactive: no binding seen”.

With B13, the “apparent Kd” value was “inactive: no binding seen”.

In the case of B14, the “apparent Kd” value was “inactive: no binding seen”.

Take B15: the “apparent Kd” value was “inactive: no binding seen”.

Take B16: the “apparent Kd” value is “inactive: no binding seen”.

Consider B17, for which the “apparent Kd” value was “inactive: no binding seen”.

B18: the apparent Kd was inactive: > 201 nM.

On to B19, for which the “apparent Kd” value was “inactive: no binding seen”.

Turning to B20, the “apparent Kd” value was “inactive: no binding seen”.

Consider B21, for which the “apparent Kd” value was “inactive: no binding seen”.

Regarding B22, the “apparent Kd” value is “inactive: no binding seen”.

For the molecule B23, the “apparent Kd” value is “inactive: no binding seen”.

Turning to B24, the “apparent Kd” value was “inactive: no binding seen”.
